Values from PubChem BioAssay AID504808 (Drosophila RNAi Screening Center, 2011)

Purpose: 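Fly genes required to hold E2F transcription in check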 (primary screen)
Cell system: Drosophila S2 cells
Reagents: long dsRNA against Drosophila genes
Measured: 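Firefly luciferase driven by E2F sites, normalised to Renilla luciferase on the same minimal promoter, measured by plate reader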
Reading the numbers: E2F firefly: higher = more E2F reporter activity; Renilla normaliser: higher = more normaliser reporter signal
Call rule: 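Called active if the normalised E2F reporter went up by over 50%; the cutoff is arbitrary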
In all, the deposit lists about 21,000 reagents; this is an unselected part of those with a known target gene and a result. Of all reagents, 18 (0.084%) got an active call. 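Raw counts without plate normalisation, one of two replicates; the ratio scores behind the calls were not deposited.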 Unmarked entries are inactive. Names joined by + are all predicted targets of the reagent. Reagent sequences are not shown. Not stated in the record: the amount of reagent, the time to read-out.

The first 3 entries, ahead of the listing:
Target gene | DRSC id | E2F firefly, rep 1 | Renilla normaliser, rep 1
CG5382 (GeneID 42618) | DRSC15786 | 73601 | 2669
Tdg (GeneID 43796) | DRSC17119 | 88717 | 2432
Tdg (GeneID 43796) | DRSC17169 | 1.19e5 | 5257

The list itself, repeating the preview:
Target gene | DRSC id | E2F firefly, rep 1 | Renilla normaliser, rep 1
CG5382 (GeneID 42618) | DRSC15786 | 73601 | 2669
Tdg (GeneID 43796) | DRSC17119 | 88717 | 2432
Tdg (GeneID 43796) | DRSC17169 | 1.19e5 | 5257
Esyt2 (GeneID 42929) | DRSC16082 | 74535 | 3692
CG5439 (GeneID 34710) | DRSC02861 | 75176 | 3267
Lectin-galC1 (GeneID 35216) | DRSC03362 | 1.01e5 | 4649
TwdlG (GeneID 40535) | DRSC12229 | 1.30e5 | 7297
Pex23 (GeneID 40229) | DRSC10323 | 70136 | 3673
Pex23 (GeneID 40229) | DRSC10645 | 1.22e5 | 6238
Hsp70Aa + Hsp70Ab | DRSC21246 | 1.13e5 | 6452
r (GeneID 32640) | DRSC19813 | 2.46e5 | 6556
r (GeneID 32640) | DRSC19814 | 1.53e5 | 6366
CG7289 (GeneID 33372) | DRSC00697 | 96585 | 4086
pygo (GeneID 43718) | DRSC14322 | 1335 | 996
mAChR-A (GeneID 37892) | DRSC04702 | 1.22e5 | 4539
St4 (GeneID 36548) | DRSC07008 | 1.05e5 | 4407
Rdl (GeneID 39054) | DRSC11264 | 75489 | 3714
otp (GeneID 37364) | DRSC04050 | 1.07e5 | 4249
otp (GeneID 37364) | DRSC04707 | 1.01e5 | 4055
CG12147 (GeneID 40651) | DRSC12192 | 1.30e5 | 6358
Gr10b (GeneID 32085) | DRSC19477 | 1.36e5 | 7173
CG15517 (GeneID 43537) | DRSC15056 | 1.22e5 | 6791
CG14984 (GeneID 38467) | DRSC08442 | 99372 | 4060
Gr68a (GeneID 39324) | DRSC10803 | 1.35e5 | 7366
CG10553 (GeneID 43064) | DRSC14254 | 94849 | 5226
Regnase-1 (GeneID 42394) | DRSC14278 | 71943 | 3425
yellow-f (GeneID 41595) | DRSC15348 | 1.11e5 | 6095
CG10104 (GeneID 36602) | DRSC05964 | 1.10e5 | 4107
CG18171 (GeneID 38216) | DRSC08524 | 96664 | 4281
CG33640 (GeneID 3772680) | DRSC01324 | 1.31e5 | 6308
CG33225 (GeneID 2768860) | DRSC03881 | 1.21e5 | 4745
Cyp4p1 (GeneID 45524) | DRSC07372 | 1.62e5 | 5600
Set2 (GeneID 32301) | DRSC19765 | 7915 | 800
da (GeneID 34413) | DRSC03517 | 1.56e5 | 4337
CG10298 (GeneID 40779) | DRSC12522 | 1.36e5 | 6093
CG9175 (GeneID 33862) | DRSC03153 | 90026 | 3885
ValRS (GeneID 45783) | DRSC06864 | 3174 | 186
ReepB (GeneID 36569) | DRSC07150 | 3173 | 233
hng1 (GeneID 37412) | DRSC04555 | 71352 | 3180
CG8301 (GeneID 41160) | DRSC16405 | 1.44e5 | 6574
ttk (GeneID 48317) | DRSC14078 | 83959 | 2542
ttk (GeneID 48317) | DRSC17091 | 1.14e5 | 4337
CG1785 (GeneID 31810) | DRSC18139 | 7026 | 780
Tsp5D (GeneID 31540) | DRSC18380 | 1.14e5 | 6059
Rme-8 (GeneID 35939) | DRSC07054 | 2853 | 224
CG14684 (GeneID 41281) | DRSC14907 | 1.47e5 | 6119
mr (GeneID 45906) | DRSC04332 | 80875 | 3730
rin (GeneID 47998) | DRSC17045 | 92516 | 4353
Ns1 (GeneID 42060) | DRSC15529 | 80362 | 6001
CG3587 (GeneID 31160) | DRSC18541 | 66428 | 940
Egfr (GeneID 37455) | DRSC03871 | 1.32e5 | 4684
Egfr (GeneID 37455) | DRSC04613 | 83233 | 3292
CG8765 (GeneID 40147) | DRSC11041 | 69422 | 9906
CG18622 (GeneID 42044) | DRSC15360 | 1.20e5 | 5523
CG31231 (GeneID 318638) | DRSC13308 | 84868 | 2835
CG34436 (GeneID 5740743) | DRSC15164 | 1.29e5 | 7585
CG15676 (GeneID 37472) | DRSC04267 | 1.09e5 | 4262
